# From the supplement of paper PMC6411743
# Protein sequences, listed by entry. Tags and fused reporters are not part of them. Lines headed by an entry give the natural chain unless they say otherwise; changes in a name come on top.
# UniProt Q6GQQ9: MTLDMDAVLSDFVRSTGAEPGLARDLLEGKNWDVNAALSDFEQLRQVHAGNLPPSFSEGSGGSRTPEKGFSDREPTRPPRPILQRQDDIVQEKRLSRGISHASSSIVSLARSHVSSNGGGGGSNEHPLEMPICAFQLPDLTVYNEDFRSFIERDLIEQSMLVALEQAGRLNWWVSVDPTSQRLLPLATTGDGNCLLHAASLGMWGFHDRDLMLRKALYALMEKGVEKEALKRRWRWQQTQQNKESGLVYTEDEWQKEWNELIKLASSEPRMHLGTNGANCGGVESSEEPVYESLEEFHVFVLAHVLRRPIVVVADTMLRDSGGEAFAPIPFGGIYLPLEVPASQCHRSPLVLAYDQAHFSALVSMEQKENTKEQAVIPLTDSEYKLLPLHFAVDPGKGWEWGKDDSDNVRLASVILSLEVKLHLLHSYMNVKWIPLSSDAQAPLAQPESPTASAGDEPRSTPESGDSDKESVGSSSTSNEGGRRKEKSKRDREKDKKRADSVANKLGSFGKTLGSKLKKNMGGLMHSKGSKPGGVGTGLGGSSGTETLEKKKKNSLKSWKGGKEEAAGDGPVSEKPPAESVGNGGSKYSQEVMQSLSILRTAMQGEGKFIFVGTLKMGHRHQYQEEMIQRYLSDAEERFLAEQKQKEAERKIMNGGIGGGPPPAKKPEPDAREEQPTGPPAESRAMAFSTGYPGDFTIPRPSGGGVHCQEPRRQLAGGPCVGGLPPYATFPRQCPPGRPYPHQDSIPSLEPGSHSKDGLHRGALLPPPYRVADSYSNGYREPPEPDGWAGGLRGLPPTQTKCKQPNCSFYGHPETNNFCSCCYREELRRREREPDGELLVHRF
# UniProt Q6Y1H2: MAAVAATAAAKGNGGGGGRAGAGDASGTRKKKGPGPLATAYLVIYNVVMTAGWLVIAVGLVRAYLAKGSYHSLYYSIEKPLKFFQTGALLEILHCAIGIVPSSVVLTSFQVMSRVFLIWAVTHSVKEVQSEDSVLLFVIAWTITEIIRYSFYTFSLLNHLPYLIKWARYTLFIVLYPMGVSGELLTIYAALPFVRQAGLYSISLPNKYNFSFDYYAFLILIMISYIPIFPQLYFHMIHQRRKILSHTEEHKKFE
# UniProt Q6ZT12: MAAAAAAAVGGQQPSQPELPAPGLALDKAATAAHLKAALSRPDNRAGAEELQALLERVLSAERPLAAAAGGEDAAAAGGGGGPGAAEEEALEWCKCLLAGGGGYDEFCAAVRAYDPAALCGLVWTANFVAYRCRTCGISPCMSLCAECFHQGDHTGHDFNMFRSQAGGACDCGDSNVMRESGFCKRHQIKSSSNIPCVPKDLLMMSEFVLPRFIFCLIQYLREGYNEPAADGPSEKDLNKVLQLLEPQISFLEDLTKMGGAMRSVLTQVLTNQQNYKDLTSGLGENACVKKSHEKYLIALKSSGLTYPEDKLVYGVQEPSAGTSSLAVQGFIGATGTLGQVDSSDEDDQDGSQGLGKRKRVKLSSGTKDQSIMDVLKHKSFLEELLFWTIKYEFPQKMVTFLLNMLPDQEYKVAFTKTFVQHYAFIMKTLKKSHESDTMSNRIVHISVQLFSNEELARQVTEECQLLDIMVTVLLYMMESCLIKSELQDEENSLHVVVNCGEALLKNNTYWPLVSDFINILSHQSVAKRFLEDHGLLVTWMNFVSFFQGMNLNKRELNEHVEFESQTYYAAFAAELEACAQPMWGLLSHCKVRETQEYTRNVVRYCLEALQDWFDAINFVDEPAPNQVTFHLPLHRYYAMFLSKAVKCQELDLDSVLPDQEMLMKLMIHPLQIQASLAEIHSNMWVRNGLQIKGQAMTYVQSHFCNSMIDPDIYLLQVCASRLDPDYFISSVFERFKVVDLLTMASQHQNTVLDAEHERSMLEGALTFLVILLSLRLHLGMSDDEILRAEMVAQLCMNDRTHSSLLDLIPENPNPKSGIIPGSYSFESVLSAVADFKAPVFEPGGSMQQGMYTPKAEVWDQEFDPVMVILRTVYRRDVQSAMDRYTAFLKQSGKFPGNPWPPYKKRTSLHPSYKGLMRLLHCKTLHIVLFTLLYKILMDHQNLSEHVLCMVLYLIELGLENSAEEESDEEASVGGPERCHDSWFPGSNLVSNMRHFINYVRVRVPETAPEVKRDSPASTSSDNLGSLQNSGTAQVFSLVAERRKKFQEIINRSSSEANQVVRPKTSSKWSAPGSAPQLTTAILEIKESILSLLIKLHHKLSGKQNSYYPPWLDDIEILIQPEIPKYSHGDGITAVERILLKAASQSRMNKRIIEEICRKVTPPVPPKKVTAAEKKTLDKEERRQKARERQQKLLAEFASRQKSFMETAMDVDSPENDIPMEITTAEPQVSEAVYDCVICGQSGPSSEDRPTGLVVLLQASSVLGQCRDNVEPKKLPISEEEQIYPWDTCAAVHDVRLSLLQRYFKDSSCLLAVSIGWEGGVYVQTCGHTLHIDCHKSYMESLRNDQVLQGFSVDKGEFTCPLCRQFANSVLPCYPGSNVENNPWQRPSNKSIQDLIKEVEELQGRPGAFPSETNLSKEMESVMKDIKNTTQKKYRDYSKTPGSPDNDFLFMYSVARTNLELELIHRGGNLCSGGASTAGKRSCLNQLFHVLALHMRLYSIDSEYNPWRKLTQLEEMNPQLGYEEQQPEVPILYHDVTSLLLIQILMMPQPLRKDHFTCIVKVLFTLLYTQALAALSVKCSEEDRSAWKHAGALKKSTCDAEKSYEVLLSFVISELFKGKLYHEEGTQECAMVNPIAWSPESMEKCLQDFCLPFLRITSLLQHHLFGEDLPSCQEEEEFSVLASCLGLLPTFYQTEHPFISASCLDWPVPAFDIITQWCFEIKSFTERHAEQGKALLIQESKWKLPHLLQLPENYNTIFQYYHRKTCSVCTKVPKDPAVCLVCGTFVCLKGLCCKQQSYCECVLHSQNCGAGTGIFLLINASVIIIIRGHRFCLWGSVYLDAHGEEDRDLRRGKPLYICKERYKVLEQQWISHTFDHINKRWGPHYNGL
# UniProt Q6PII3: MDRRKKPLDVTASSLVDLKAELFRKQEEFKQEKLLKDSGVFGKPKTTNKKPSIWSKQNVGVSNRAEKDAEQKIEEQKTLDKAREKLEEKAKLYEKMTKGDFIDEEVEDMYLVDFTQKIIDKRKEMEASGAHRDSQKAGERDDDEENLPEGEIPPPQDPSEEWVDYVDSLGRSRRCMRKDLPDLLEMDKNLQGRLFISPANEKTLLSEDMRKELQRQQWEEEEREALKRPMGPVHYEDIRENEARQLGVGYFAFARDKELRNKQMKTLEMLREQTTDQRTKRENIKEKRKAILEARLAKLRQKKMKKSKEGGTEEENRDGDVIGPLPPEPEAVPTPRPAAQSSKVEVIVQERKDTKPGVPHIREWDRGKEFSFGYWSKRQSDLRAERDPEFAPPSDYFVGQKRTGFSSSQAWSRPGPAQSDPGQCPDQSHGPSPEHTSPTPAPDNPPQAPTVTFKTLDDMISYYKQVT
# UniProt Q7Z4G4: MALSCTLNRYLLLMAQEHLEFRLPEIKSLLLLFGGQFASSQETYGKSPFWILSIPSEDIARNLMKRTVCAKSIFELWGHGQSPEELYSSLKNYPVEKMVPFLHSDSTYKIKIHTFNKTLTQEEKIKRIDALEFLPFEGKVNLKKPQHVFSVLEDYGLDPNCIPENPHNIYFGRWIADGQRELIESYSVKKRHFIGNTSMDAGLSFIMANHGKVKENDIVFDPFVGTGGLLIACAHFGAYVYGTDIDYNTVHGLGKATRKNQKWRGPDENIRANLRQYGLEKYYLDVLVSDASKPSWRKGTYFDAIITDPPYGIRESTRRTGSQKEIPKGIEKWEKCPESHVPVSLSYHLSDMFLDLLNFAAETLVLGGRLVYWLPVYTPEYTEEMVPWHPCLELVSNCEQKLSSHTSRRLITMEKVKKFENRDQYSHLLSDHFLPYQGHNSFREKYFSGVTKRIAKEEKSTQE
# UniProt Q7L7X3: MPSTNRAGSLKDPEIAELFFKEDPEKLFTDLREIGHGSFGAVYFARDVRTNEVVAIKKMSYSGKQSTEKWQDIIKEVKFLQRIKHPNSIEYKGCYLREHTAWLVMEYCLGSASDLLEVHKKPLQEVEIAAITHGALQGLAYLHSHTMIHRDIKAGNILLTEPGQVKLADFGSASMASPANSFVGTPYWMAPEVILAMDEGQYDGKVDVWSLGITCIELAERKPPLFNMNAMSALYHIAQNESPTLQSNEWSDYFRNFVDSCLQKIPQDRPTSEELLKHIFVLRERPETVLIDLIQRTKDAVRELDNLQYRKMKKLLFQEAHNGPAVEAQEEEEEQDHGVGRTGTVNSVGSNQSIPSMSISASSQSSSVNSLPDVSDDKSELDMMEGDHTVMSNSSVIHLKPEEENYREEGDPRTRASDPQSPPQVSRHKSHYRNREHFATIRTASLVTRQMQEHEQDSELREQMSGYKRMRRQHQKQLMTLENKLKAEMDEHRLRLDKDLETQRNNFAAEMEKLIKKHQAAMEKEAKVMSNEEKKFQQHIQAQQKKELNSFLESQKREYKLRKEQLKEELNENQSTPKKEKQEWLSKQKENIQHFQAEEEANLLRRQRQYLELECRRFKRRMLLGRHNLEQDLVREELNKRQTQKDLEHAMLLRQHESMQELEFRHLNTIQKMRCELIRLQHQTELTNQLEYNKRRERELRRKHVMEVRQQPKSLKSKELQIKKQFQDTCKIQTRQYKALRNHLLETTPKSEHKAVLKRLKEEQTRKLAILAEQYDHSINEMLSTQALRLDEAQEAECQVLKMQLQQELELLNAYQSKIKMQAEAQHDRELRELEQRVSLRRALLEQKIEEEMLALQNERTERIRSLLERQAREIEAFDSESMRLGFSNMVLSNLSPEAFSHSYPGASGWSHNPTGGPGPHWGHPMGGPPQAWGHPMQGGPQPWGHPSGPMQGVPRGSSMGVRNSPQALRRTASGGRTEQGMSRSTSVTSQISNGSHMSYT
# UniProt Q6P4F2: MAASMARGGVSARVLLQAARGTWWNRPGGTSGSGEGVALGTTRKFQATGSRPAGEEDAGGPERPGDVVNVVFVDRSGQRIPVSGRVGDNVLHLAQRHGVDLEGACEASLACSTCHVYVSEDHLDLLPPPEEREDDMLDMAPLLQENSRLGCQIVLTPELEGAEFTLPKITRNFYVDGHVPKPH
# UniProt Q7KZF4: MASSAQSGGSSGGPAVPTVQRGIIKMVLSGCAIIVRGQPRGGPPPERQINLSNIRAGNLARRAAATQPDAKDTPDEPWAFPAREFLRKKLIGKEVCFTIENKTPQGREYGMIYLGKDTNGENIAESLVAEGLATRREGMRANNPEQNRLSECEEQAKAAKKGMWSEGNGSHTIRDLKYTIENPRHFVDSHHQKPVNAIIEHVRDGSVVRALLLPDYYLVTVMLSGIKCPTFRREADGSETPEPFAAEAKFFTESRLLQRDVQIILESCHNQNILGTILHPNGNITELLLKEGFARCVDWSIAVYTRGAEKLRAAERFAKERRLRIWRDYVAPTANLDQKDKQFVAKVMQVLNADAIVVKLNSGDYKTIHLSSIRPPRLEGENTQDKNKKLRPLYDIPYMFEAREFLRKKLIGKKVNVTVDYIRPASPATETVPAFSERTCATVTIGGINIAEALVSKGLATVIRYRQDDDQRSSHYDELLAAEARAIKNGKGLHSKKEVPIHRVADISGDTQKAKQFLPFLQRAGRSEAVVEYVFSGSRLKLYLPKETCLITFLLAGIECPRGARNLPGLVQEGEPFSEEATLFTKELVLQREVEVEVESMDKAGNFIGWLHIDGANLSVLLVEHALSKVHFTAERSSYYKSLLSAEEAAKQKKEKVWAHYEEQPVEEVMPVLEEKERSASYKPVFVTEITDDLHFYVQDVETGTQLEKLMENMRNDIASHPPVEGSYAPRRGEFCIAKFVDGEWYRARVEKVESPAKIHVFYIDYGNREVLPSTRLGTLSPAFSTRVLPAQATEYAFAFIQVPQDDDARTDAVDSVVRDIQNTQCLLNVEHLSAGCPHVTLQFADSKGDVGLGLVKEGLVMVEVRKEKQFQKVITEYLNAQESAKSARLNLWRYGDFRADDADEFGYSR
# UniProt Q7L5N7: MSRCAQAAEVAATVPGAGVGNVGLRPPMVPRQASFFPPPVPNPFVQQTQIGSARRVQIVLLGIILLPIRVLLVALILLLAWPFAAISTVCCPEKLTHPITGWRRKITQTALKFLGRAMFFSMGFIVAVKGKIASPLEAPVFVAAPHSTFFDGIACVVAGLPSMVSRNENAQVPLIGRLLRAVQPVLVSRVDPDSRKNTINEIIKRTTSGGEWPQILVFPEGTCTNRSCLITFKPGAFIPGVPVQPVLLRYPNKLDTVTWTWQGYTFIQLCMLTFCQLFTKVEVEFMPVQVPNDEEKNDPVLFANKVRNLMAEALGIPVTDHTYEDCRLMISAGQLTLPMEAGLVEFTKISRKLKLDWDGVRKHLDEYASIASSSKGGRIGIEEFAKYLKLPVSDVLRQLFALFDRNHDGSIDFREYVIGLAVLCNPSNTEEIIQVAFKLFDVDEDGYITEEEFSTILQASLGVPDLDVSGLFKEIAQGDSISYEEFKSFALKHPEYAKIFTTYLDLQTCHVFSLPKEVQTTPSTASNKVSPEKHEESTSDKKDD
# ± gives the standard deviation of the averaged measurements. The entries are a selection whose mix differs from that of the whole data set.
# Compound: Nc1ncnc2c1ncn2[C@@H]1O[C@H](COP(=O)(O)OP(=O)(O)NP(=O)(O)O)[C@@H](O)[C@H]1O [adenylyl imidodiphosphate]
# Test: NP40-soluble protein abundance relative to vehicle (solubility fold change) (ratio); higher = more soluble protein in presence of AMP-PNP
# Procedure, shortened: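 Eight concentrations, 0.1 to 10 mM, were tested on Jurkat crude lysate for 10 min at room temperature and then 3 min at 37 °C, in three independent experiments. The lysate was solubilised with 0.8% NP40 and benzonase, ultracentrifuged, and the supernatant TMT-labelled for LC-MS/MS. Each value is the fold change against the detergent-processed vehicle in its own replicate, from vsn-normalised intensities.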
Target,NP40-soluble protein abundance (concentration: 1mM),NP40-soluble protein abundance (concentration: 2mM),NP40-soluble protein abundance (concentration: 4mM),NP40-soluble protein abundance (concentration: 6mM),NP40-soluble protein abundance (concentration: 8mM),NP40-soluble protein abundance (concentration: 10mM)
EDC4 (UniProt Q6P2E9),0.963 ± 0.03,0.985 ± 0.029,0.957 ± 0.039,0.957 ± 0.035,0.942 ± 0.045,0.957 ± 0.043
BLOC1S3 (UniProt Q6QNY0),0.992 ± 0.007,1.03 ± 0.033,1.03 ± 0.03,1.03 ± 0.039,1.037 ± 0.0084,1.03 ± 0.02
UniProt Q6GQQ9 and related entries,1 ± 0.013,1.04 ± 0.053,1.03 ± 0.031,1 ± 0.018,1 ± 0.018,1 ± 0.032
UniProt Q6Y1H2,0.994 ± 0.02,0.97 ± 0.039,0.947 ± 0.027,0.9917 ± 0.0076,0.984 ± 0.036,0.976 ± 0.027
UniProt Q6ZT12 and related entries,1.06 ± 0.024,1.027 ± 0.0036,1.02 ± 0.031,0.9715 ± 0.0059,0.96 ± 0.02,0.9736 ± 0.005
UniProt Q68EM7-2|Q68EM7-3|Q68EM7,0.97 ± 0.032,1.01 ± 0.061,0.956 ± 0.036,1.02 ± 0.034,0.987 ± 0.021,1.01 ± 0.026
SNX30 (UniProt Q5VWJ9),1.002 ± 0.0069,0.9917 ± 6.2e-05,0.994 ± 0.03,1.01 ± 0.017,0.987 ± 0.025,1.013 ± 0.0092
UniProt Q7Z434 and related entries,1 ± 0.038,1.02 ± 0.049,1.01 ± 0.015,0.981 ± 0.013,0.968 ± 0.056,0.944 ± 0.032
DARS2 (UniProt Q6PI48),0.939 ± 0.049,0.861 ± 0.12,0.924 ± 0.016,0.918 ± 0.036,0.942 ± 0.021,0.89 ± 0.012
UniProt Q6PII3 and related entries,0.986 ± 0.024,1.04 ± 0.042,1.02 ± 0.016,1.01 ± 0.02,0.991 ± 0.032,1.04 ± 0.042
ANKRD11 (UniProt Q6UB99),1.01 ± 0.025,1.09 ± 0.039,1.04 ± 0.028,1.06 ± 0.029,1.02 ± 0.036,1.05 ± 0.018
UniProt Q7Z4G4 and related entries,0.972 ± 0.07,0.963 ± 0.0081,0.96 ± 0.04,0.962 ± 0.065,0.941 ± 0.043,0.951 ± 0.044
TAOK1 (UniProt Q7L7X3),1.03 ± 0.041,1.011 ± 0.009,1.03 ± 0.012,1.01 ± 0.018,1.02 ± 0.031,1.03 ± 0.027
ZCCHC8 (UniProt Q6NZY4),1.03 ± 0.056,1.09 ± 0.035,1.03 ± 0.031,1.03 ± 0.092,0.998 ± 0.046,1.05 ± 0.066
UniProt Q6N043 and related entries,1.02 ± 0.027,1.07 ± 0.056,1.04 ± 0.024,1.07 ± 0.027,1.09 ± 0.05,1.08 ± 0.049
UniProt Q7L523,1.05 ± 0.037,0.989 ± 0.033,1.06 ± 0.05,1.01 ± 0.04,1.09 ± 0.051,1.007 ± 0.00089
FDX2 (UniProt Q6P4F2),0.982 ± 0.02,1.02 ± 0.025,0.97 ± 0.028,0.984 ± 0.029,0.987 ± 0.017,0.969 ± 0.013
TAF3 (UniProt Q5VWG9),1.02 ± 0.055,1.05 ± 0.056,1.05 ± 0.05,1.07 ± 0.045,1.06 ± 0.021,1.08 ± 0.035
SND1 (UniProt Q7KZF4),1.03 ± 0.029,1.03 ± 0.034,1.11 ± 0.049,1.21 ± 0.049,1.27 ± 0.064,1.28 ± 0.059
UniProt Q7L5N7 and related entries,0.987 ± 0.031,0.966 ± 0.051,0.979 ± 0.037,0.99 ± 0.035,0.985 ± 0.028,1.01 ± 0.036

# Whole records as entered above.
# UniProt Q6ZT12 and related entries reads NP40-soluble protein abundance (concentration: 1mM): 1.06 ± 0.024; NP40-soluble protein abundance (concentration: 2mM): 1.027 ± 0.0036; NP40-soluble protein abundance (concentration: 4mM): 1.02 ± 0.031; NP40-soluble protein abundance (concentration: 6mM): 0.9715 ± 0.0059; NP40-soluble protein abundance (concentration: 8mM): 0.96 ± 0.02; NP40-soluble protein abundance (concentration: 10mM): 0.9736 ± 0.005
# UniProt Q6PII3 and related entries reads NP40-soluble protein abundance (concentration: 1mM): 0.986 ± 0.024; NP40-soluble protein abundance (concentration: 2mM): 1.04 ± 0.042; NP40-soluble protein abundance (concentration: 4mM): 1.02 ± 0.016; NP40-soluble protein abundance (concentration: 6mM): 1.01 ± 0.02; NP40-soluble protein abundance (concentration: 8mM): 0.991 ± 0.032; NP40-soluble protein abundance (concentration: 10mM): 1.04 ± 0.042
